These results are taken from ChEMBL document CHEMBL4400508, “Targeted Endocrine Therapy: Design, Synthesis, and Proof-of-Principle of 17β-Hydroxysteroid Dehydrogenase Type 2 Inhibitors in Bone Fracture Healing” (J Med Chem, 2019).

As a reminder, the half-life is the time in which the quantity being followed falls by half.

This series can be described thus: in vitro. Conditions: human, s9.

Molecule `O=C(c1cccc(O)c1)c1ccc(-c2cccc(NS(=O)(=O)c3ccccc3)c2)s1` came in with a half-life of under 5 min.
